Measurements published in PubChem BioAssay AID540275 (National Center for Advancing Translational Sciences (NCATS), 2011).
Screen size: about 320,000 compounds; about 620 (0.19%) were called active. Inconclusive results, whose numbers are uncertain, are shown with a selection of clear calls. Cut-off read from the data, not from the text of the source: active = activation above about 80%; inconclusive = between about 30% and that limit; inactive = weaker than that.
Note: 0% is about no effect.

The chains behind the UniProt entries cited, without tags or fusion partners.
UniProt Q8NER1, whole entry, looked up: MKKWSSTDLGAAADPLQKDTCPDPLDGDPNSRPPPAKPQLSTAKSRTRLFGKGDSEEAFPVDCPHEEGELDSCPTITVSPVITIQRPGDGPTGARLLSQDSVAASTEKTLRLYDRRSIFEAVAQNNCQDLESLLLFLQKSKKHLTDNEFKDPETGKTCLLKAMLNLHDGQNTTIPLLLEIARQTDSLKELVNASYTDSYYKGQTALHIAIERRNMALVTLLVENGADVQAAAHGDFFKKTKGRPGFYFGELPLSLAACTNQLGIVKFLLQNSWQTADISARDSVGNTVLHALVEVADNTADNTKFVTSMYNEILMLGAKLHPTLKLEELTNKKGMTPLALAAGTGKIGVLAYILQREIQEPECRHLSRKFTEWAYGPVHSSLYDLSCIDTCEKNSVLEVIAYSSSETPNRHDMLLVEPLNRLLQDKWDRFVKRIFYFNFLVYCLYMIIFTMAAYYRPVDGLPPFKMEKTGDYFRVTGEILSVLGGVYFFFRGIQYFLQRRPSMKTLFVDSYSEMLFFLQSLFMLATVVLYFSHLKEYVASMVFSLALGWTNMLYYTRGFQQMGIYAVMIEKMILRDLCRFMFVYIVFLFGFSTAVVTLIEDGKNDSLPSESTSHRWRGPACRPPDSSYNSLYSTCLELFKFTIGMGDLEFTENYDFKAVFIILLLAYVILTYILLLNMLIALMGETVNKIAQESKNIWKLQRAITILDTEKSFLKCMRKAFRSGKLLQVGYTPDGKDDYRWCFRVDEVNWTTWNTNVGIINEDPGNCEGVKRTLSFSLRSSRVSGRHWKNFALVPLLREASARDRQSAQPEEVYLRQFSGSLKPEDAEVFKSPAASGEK

The compounds below were run against Transient receptor potential cation channel subfamily V member 1 (Homo sapiens) (UniProt Q8NER1) (assay: HTS Assay for Compounds that Act as Agonists of the Vanilloid Receptor 1). Settings: TRPV1-expressing cells, Fluo-8 calcium influx, agonist mode; at 8.33 µM, active compounds read high.
How it was run: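 Cells expressing TRPV1 were dye-loaded with Fluo-8 and read kinetically: 10 s baseline, 3 min after compound (agonist portion), then 2 min after EC20 capsaicin (allosteric enhancer portion). Calcium-bound dye fluorescence at 480/520 nm.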
In the case of `CCn1ncc(CN2CCCC(C(=O)c3cccc(OC(C)C)c3)C2)c1C` (configuration not stated), the activation was inconclusive: 52.6%.
In the case of `O=C(NCc1ccccc1)Nc1cccn(Cc2c(F)cccc2Cl)c1=O`, the activation was inconclusive: 59.5%.
With `CC(C)c1ccc(NC2CCCN(C(=O)CCc3cnn(C)c3)C2)cc1` (configuration not stated) the activation was inconclusive: 53.7%.
In the case of `O=C(COC(=O)Cc1ccc(Br)cc1)NC12CC3CC(CC(C3)C1)C2`, the activation was inconclusive: 35.5%.
For `Cc1cc(C(=O)COC(=O)C2CC2)c(C)n1-c1ccc(F)cc1`, the activation was inconclusive: 43.4%.
In the case of `Cc1ccc(-c2nc(N3CCOCC3)sc2C(=O)N2CCCCC2)cc1`, the activation was inconclusive: 51.8%.
With `COc1ccc(/C=C(/C#N)S(=O)(=O)c2ccc(C)cc2)cc1` the activation was inconclusive: 47.1%.
`COc1ccccc1CNS(=O)(=O)c1ccc2c(c1)NC(=O)C(C)S2` (configuration not stated) was tested, and the activation was inconclusive: 49.1%.
In the case of `Fc1ccc(C2c3[nH]c4ccccc4c3CCN2CCCn2cccn2)cc1` (configuration not stated), the activation was inconclusive: 45.4%.
For `COc1ccc(/C=C/c2ccccc2)cc1[C@H]1[C@@H]2C=CCC[C@@]2(C)C(=O)N1Cc1ccccc1`, the activation was inconclusive: 44%.
In the case of `Cc1ccc(NC(=O)C(C)OC(=O)CCC2CCCCC2)cc1` (configuration not stated), the activation was inconclusive: 41.7%.
In the case of `Cc1ccccc1OCc1nnc(SCC(=O)Nc2ccc3nc(SCC(=O)NC(C)(C)C)sc3c2)n1C`, the activation was inactive: 0.449%.
In the case of `O=C(Nc1ccc(F)cc1)c1ccc(COc2ccccc2)cc1`, the activation was inactive: 5.67%.
With `COc1ccc(COc2ccccc2C(=O)NCc2ccccc2)cc1F` the activation was inconclusive: 62.7%.
With `O=C(CCN1CCN(C(c2ccccc2)c2ccccc2)CC1)N/N=C/c1ccc(O)cc1O` the activation was inconclusive: 68.6%.
`O=C(NCCSCc1ccc(Cl)cc1)c1cccs1` was tested, and the activation was inconclusive: 44.6%.
`CCn1c(=O)c(CCC(=O)NCC2CCCO2)c(C)c2c(C)nn(-c3ccccc3)c21` (configuration not stated) was tested, and the activation was inconclusive: 71.7%.
For `O=Cc1c(NCc2cccc(F)c2)c2ccccc2[nH]c1=O`, the activation was inconclusive: 31%.
With `Cc1ccc(N2CCN(c3ccc(C)cc3)C2c2ccncc2)cc1` the activation was inconclusive: 43.4%.
With `Cc1[nH]c2ccccc2c1C(=O)C(=O)N1c2ccccc2CC1C` (configuration not stated) the activation was inconclusive: 32.6%.
For `Cc1ccc(NC(=S)Nc2cccc3ccccc23)cc1F`, the activation was inactive: -13.5%.
`CC(C)CCNC(=O)c1ccc(Cl)c(NC(=O)Cc2ccccc2)c1` was tested, and the activation was inconclusive: 70.4%.
With `COc1cccc(/C=N/Nc2c(Cl)cncc2Cl)c1O` the activation was inconclusive: 57.1%.
`Cc1ccc(NC2CCCN(C(=O)C3CCCC3)C2)cc1C` (configuration not stated) was tested, and the activation was inconclusive: 60.9%.
In the case of `O=C(NCc1ccccc1Cl)c1ccccc1CCc1ccccc1`, the activation was inconclusive: 31.8%.
In the case of `O=C(CN(Cc1ccc2c(c1)OCO2)C(=O)CSc1nc2ccccc2o1)NC1CCCCC1`, the activation was inconclusive: 52%.
In the case of `Cn1c(SCC(=O)N/N=C/c2cc([N+](=O)[O-])ccc2O)nnc1-c1ccccc1`, the activation was inactive: -2.12%.
`CCOC(=O)COc1ccc(-c2nnc(-c3ccccc3)o2)cc1` was tested, and the activation was inactive: 24.6%.
For `CCSc1ncc(Cl)c(C(=O)Nc2ccccc2)n1`, the activation was inconclusive: 46%.
`CC/C(=N\NC(=O)c1ccccc1Cl)c1ccc(Br)s1` was tested, and the activation was inconclusive: 34.4%.
With `O=C(Nc1cccc(C(F)(F)F)c1)C1CCCCC1` the activation was inconclusive: 35.4%.
`Fc1ccc(N/N=C/c2cccnc2)c(F)c1` was tested, and the activation was inconclusive: 41.3%.
With `O=C(c1cccc(Cl)c1)N1CCN(Cc2ccc3c(c2)OCO3)CC1` the activation was inconclusive: 33.5%.
For `Cc1cc(N2CCCC(C(=O)Nc3ccc4c(c3)CCC4)C2)n2ncnc2n1` (configuration not stated), the activation was active: 92.8%.
With `COCCN1C=C(C(=O)OC)C(c2ccccc2C(F)(F)F)C(C(=O)OC)=C1` the activation was inconclusive: 36.4%.
In the case of `COC(=O)C(Cc1cccc(C)n1)(c1ccccc1)c1ccccc1`, the activation was inconclusive: 34.5%.
In the case of `CC(C)C(=O)N1CCN(c2nc(-c3ccccc3)c3c(c2C#N)CCCC3)CC1`, the activation was inconclusive: 68.6%.
For `Cc1ccc(CN2CCN(/N=C\C(Br)=C\c3ccccc3)CC2)cc1`, the activation was inconclusive: 32.7%.
In the case of `CSc1ccc(/C=N/NC(=O)c2cccs2)cc1`, the activation was inconclusive: 70.9%.
`O=C(CSc1nnc2c3ccccc3c3ccccc3c2n1)Nc1ccccc1` was tested, and the activation was inactive: -1.65%.
For `Cc1ccccc1C(=O)NN1C(=O)CSC1=S`, the activation was inactive: 3.02%.
`Cc1ccc(C)c(C(=O)NCCN(C)C)c1` was tested, and the activation was inactive: 0.75%.
In the case of `COc1ccc(CNc2nc3nc(C)cc(C)n3n2)cc1`, the activation was inactive: 0.983%.
`O=C(COc1ccccc1Br)NCCC1=CCCCC1` was tested, and the activation was inconclusive: 34.1%.
With `CCOc1ccc(OCCSc2nc(C)cc(=O)[nH]2)cc1` the activation was inconclusive: 43.3%.
For `Cc1cc(C)c2c(n1)sc1c(-c3ccccc3)c(C#N)c(N)nc12`, the activation was inactive: 5.36%.
In the case of `O=C(NNC(=O)c1ccc([N+](=O)[O-])cc1)c1ccc(Br)cc1`, the activation was inactive: 3.64%.
In the case of `COc1ccc(C(=O)N[C@H](C(=O)NCc2ccco2)C(C)C)cc1`, the activation was inactive: -0.738%.
With `CCOc1ccc(C(=O)NC(=S)Nc2ccccc2N2CCOCC2)cc1Br` the activation was inactive: 10%.
`CCCCCCCCOC(=O)CCc1c(C)[nH]c(=S)[nH]c1=O` was tested, and the activation was inconclusive: 53.7%.
`COc1ccc(N2CCN(C(=O)NC34CC5CC(CC(C5)C3)C4)CC2)cc1` was tested, and the activation was inconclusive: 31.9%.
With `Cc1cc(C(=O)Nc2ccc(Cl)cc2)c(C)n1-c1ccccc1` the activation was inconclusive: 62.8%.
For `COc1ccc([C@H]2CC(=O)C=C(c3ccc(C)c(F)c3)C2)cc1`, the activation was inconclusive: 42.2%.
For `Cc1cc(Cl)ccc1NC(=O)c1ccc2c(c1)CCN2S(C)(=O)=O`, the activation was inconclusive: 62.5%.
`COc1ccc(O)c(C(=O)c2cnn(S(=O)(=O)c3ccc(C)cc3)c2)c1` was tested, and the activation was inconclusive: 45.9%.
For `Cc1cnc(C(=O)OCC(=O)c2c(N)n(CC(C)C)c(=O)n(C)c2=O)cn1`, the activation was inactive: 1.5%.
For `CCCOC(=O)c1ccc(NC(=O)c2cc(=O)[nH]c3ccccc23)cc1`, the activation was inactive: 7.1%.
`O=C(N/N=C/C=C/c1ccccc1)c1cccs1` was tested, and the activation was inconclusive: 51.2%.
In the case of `CCN(CC)S(=O)(=O)c1ccc(Cl)c(NC(=O)COC(=O)c2cccn2C)c1`, the activation was inactive: 0.852%.
With `CCC/C(=N/NC(=O)c1csc(C)c1C)c1ccc(Cl)s1` the activation was inconclusive: 58.4%.
With `Cc1ccc(NC(=O)c2noc3c2CC(C(C)(C)C)CC3)cc1` (configuration not stated) the activation was inconclusive: 40.2%.
`Cn1c(CNC(=O)c2ccccc2)nnc1SCC(=O)Nc1nccs1` was tested, and the activation was inactive: 1.53%.
In the case of `CCSc1nnc(Nc2ccc(C)cc2)s1`, the activation was inconclusive: 68.1%.
`CCOC(=O)c1c(C)oc2ccc(OCC(=O)C(C)(C)C)cc12` was tested, and the activation was inconclusive: 39.8%.
With `CC1CCN(CC(=O)Nc2ccccc2C(=O)NC2CC2)CC1` the activation was inactive: 3.37%.
`O=C(C1CCCCC1)N1CCc2[nH]c3ccc(F)cc3c2C1` was tested, and the activation was inconclusive: 55.9%.
With `Cc1ccc(C)c(NC(=O)C2C(c3ccccc3)C2(Cl)Cl)c1` (configuration not stated) the activation was inconclusive: 52.7%.
With `COCc1cccc(C2=CC(=O)C[C@H](c3ccc(F)cc3)C2)c1` the activation was inconclusive: 40.5%.
For `Cc1noc(C)c1CSc1nc2sc(C)c(C)c2c(=O)n1-c1ccccc1`, the activation was inconclusive: 41.3%.
For `COc1ccc(S[C@@H](CCN2CC[C@H](C)CCC2=O)c2ccccc2)cc1`, the activation was inconclusive: 61.4%.
`CC(C)c1ccc(C2=NN(c3ccccc3)C(=O)CC2)cc1` was tested, and the activation was inconclusive: 73.1%.
`Cc1ccc(-c2cc(C(=O)N/N=C\c3cnn(C)c3C)c3ccccc3n2)cc1C` was tested, and the activation was inactive: 0.405%.
`Cc1cc(SCC(=O)NCCN2C(=O)CSC2=O)nc2ccccc12` was tested, and the activation was inconclusive: 34.6%.
In the case of `Cc1ccc(NC(=O)C2C3/C=C\CCCCC32)cc1` (configuration not stated), the activation was inconclusive: 41.1%.
With `c1ccc(C2=Nn3c(nnc3-c3ccncc3)SC2)cc1` the activation was inactive: -4.72%.
For `Cc1ccc(NC(=O)c2nc[nH]c2C(=O)N[C@H](C)c2ccccc2)cc1`, the activation was inconclusive: 42.4%.
`COc1ccc(CNC(=S)Nc2ccccc2)cc1Cl` was tested, and the activation was inconclusive: 77.2%.
In the case of `CC(Oc1ccccc1)C(=O)Nc1ccc(S(=O)(=O)N2CCCC2)cc1` (configuration not stated), the activation was inconclusive: 32.3%.
In the case of `Cc1nc2ccccn2c1C(=O)N/N=C/c1cc(C)n(-c2ccc(Br)cc2)c1C`, the activation was inactive: -0.897%.
With `COc1ccc(CSCC(=O)Nc2ccc(S(=O)(=O)N3CCCCCC3)cc2)cc1` the activation was inconclusive: 42.1%.
For `CC(=O)N1c2ccc(S(=O)(=O)N3CCC(C(=O)Nc4cccc(Cl)c4)CC3)cc2CC1C` (configuration not stated), the activation was inactive: 2.05%.
`O=C(Cc1c[nH]c2ccccc12)N1CCN(c2ccccc2)CC1` was tested, and the activation was inconclusive: 35.5%.
With `N#CC(C#N)=C/C(C#N)=C(/N)N1CCN(c2ccc(Cl)cc2)CC1` the activation was inactive: -1.29%.
`C/C(CC(=O)Nc1ccc(N(C)C)cc1)=N\NC(=O)c1ccc(Cl)cc1Cl` was tested, and the activation was inactive: 1.79%.
In the case of `O=C(CSc1nc2cc(Cl)ccc2o1)N1CCOCC1`, the activation was inconclusive: 48.4%.
For `Cc1ccc(-n2c(C(C)C)nc3oc4ccccc4c(=O)c3c2=O)cc1`, the activation was inactive: 4.69%.
With `CCCCCn1c(=O)[nH]c2cc(C(=O)O)ccc2c1=O` the activation was inactive: 0.903%.
For `CCOC(=O)c1oc2nc(CC(C)C)c3c(c2c1N)CCC3`, the activation was inconclusive: 32.9%.
For `c1ccc(COc2cccc(CNCc3cccnc3)c2)cc1`, the activation was inactive: 15.3%.
For `COc1ccc(S(=O)(=O)N2CCNCC2)cc1`, the activation was inactive: 0.223%.
For `N#Cc1ccc(NC(=S)NC(=O)CCc2ccc(S(=O)(=O)N3CCOCC3)cc2)cc1`, the activation was inactive: 1.83%.
In the case of `O=Cc1c[nH]c2ccc(S(=O)(=O)N3CCOCC3)cc12`, the activation was inconclusive: 74.5%.
